According to publication PMC5053991:
No constants are given. Whether binding was seen depends on the method and setting. In cells and extracts the contact can be indirect.

Protein sequences, listed by entry. Tags and fused reporters are not part of them.
UniProt O14964: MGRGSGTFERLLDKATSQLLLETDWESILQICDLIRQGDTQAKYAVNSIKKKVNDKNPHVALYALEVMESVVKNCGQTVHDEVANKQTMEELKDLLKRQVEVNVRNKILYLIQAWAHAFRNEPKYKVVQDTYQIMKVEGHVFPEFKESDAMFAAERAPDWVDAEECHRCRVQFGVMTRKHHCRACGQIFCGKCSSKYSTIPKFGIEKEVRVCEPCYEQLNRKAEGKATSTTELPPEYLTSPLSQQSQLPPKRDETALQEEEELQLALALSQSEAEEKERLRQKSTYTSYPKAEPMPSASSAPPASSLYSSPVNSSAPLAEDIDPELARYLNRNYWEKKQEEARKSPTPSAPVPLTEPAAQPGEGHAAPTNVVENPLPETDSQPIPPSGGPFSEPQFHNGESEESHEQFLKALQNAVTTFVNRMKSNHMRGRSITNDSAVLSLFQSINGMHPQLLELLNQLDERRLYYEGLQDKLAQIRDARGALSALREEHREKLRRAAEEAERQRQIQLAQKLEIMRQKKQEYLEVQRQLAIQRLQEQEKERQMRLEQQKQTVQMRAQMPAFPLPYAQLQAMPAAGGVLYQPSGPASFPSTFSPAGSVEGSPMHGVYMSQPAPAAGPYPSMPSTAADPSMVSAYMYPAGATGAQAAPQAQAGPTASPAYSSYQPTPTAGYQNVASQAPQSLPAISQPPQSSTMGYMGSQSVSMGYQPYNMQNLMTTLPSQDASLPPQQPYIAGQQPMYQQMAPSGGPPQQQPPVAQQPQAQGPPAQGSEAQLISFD
UniProt O84678: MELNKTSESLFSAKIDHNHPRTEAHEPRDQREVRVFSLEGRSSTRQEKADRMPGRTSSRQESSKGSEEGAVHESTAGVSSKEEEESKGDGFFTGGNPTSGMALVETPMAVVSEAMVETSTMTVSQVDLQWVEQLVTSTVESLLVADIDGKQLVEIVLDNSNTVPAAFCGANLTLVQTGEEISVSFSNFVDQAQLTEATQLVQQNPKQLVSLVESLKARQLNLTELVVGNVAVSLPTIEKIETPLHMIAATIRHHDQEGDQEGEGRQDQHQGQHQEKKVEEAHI

Biological target: myc-Hrs (UniProt O14964)
Experiment: co-IP; HEK-293 cells co-transfected with myc-Hrs and GFP-tagged constructs for 24 h; lysis in 150 mM NaCl, 0.5% Triton X-100, 50 mM Tris pH 7.5; IP with anti-myc 9E10 and protein G sepharose at 4°C; blot anti-GFP

Substance: GFP-CT671 (from UniProt O84678 1-283)
- binding: no binding
